The source gives many values for each of these; only a part stands here.
Test system: HEK293T nuclear lysates
Assay: SILAC‐based pull‐down proteomics H4K5me1/H4K5 (probes 6/5)
Assay type: binding, human

probe 6: H4K5me peptide probe with photo‐arginine R(dz) and K(biotin) (SGRGKGGKGLGKGGK; photo-arginine R(dz) at 3; monomethyl-lysine at 5; K(biotin) at 15)
C6 log (H4K5me/H4K5) (protein IWS1 (Q96ST2), run C6): -0.1301
B6 log2 (H4K5me/H4K5) (protein K7EJT5 RPL22, run B6): 0.5097
C6 log (H4K5me/H4K5) (protein K7EJT5 RPL22, run C6): 0.5097
B6 log2 (H4K5me/H4K5) (protein K7EQ02 DAZAP1, run B6): 0.1345
C6 log (H4K5me/H4K5) (protein K7EQ02 DAZAP1, run C6): 0.26
B6 log2 (H4K5me/H4K5) (protein KDM1A (O60341), SILAC run B6): -0.2655
C6 log (H4K5me/H4K5) (protein KDM1A (O60341), SILAC run C6): -0.2397
B6 log2 (H4K5me/H4K5) (protein KHDRBS1 (Q07666), run B6): 0.02395
C6 log (H4K5me/H4K5) (protein KHDRBS1 (Q07666), run C6): 0.003289
B6 log2 (H4K5me/H4K5) (protein KHSRP (Q92945), run B6): 0.03286
C6 log (H4K5me/H4K5) (protein KHSRP (Q92945), run C6): 0.1014
B6 log2 (H4K5me/H4K5) (protein KIF4A (O95239), run B6): 0.09799
C6 log (H4K5me/H4K5) (protein KIF4A (O95239), run C6): 0.09778
B6 log2 (H4K5me/H4K5) (protein KIF22 (Q14807), SILAC run B6): -0.2292
C6 log (H4K5me/H4K5) (protein KIF22 (Q14807), SILAC run C6): -0.1278
B6 log2 (H4K5me/H4K5) (protein KIF23 (A0A2U3TZL8), run B6): 0.05551
C6 log (H4K5me/H4K5) (protein KIF23 (A0A2U3TZL8), run C6): -0.1065
B6 log2 (H4K5me/H4K5) (protein KPNA2 (P52292), run B6): 0.008279
C6 log (H4K5me/H4K5) (protein KPNA2 (P52292), run C6): 0.08085
B6 log2 (H4K5me/H4K5) (protein KPNA3 (O00505), SILAC run B6): -0.4637
C6 log (H4K5me/H4K5) (protein KPNA3 (O00505), SILAC run C6): -0.3989
B6 log2 (H4K5me/H4K5) (protein KPNB1 (Q14974), run B6): 0.05385
C6 log (H4K5me/H4K5) (protein KPNB1 (Q14974), run C6): -0.005795
B6 log2 (H4K5me/H4K5) (protein LRWD1 (Q9UFC0), SILAC run B6): -0.2394
C6 log (H4K5me/H4K5) (protein LRWD1 (Q9UFC0), SILAC run C6): 0.1828
B6 log2 (H4K5me/H4K5) (protein LUC7L3 (O95232), run B6): 0.1009
C6 log (H4K5me/H4K5) (protein LUC7L3 (O95232), run C6): 0.08224
B6 log2 (H4K5me/H4K5) (protein M0R366 FSD1, run B6): 0.5243
C6 log (H4K5me/H4K5) (protein M0R366 FSD1, run C6): 0.5243
B6 log2 (H4K5me/H4K5) (protein MATR3 (P43243), run B6): 0.01535
C6 log (H4K5me/H4K5) (protein MATR3 (P43243), run C6): 0.06347
B6 log2 (H4K5me/H4K5) (protein MAX (P61244), run B6): 0.0467
C6 log (H4K5me/H4K5) (protein MAX (P61244), run C6): 0.04821
B6 log2 (H4K5me/H4K5) (protein MCM2 (P49736), run B6): -0.008591
C6 log (H4K5me/H4K5) (protein MCM2 (P49736), run C6): -0.03615
B6 log2 (H4K5me/H4K5) (protein MCM3 (P25205), run B6): 0.09487
C6 log (H4K5me/H4K5) (protein MCM3 (P25205), run C6): 0.04565
B6 log2 (H4K5me/H4K5) (protein MCM4 (A0A3B3IU45), run B6): 0.002224
C6 log (H4K5me/H4K5) (protein MCM4 (A0A3B3IU45), run C6): 0.007898
B6 log2 (H4K5me/H4K5) (protein MCM5 (P33992), run B6): 0.007776
C6 log (H4K5me/H4K5) (protein MCM5 (P33992), run C6): 0.01159
B6 log2 (H4K5me/H4K5) (protein MCM7 (P33993), run B6): 0.108
C6 log (H4K5me/H4K5) (protein MCM7 (P33993), run C6): 0.07892
B6 log2 (H4K5me/H4K5) (protein MDC1 (Q14676), SILAC run B6): -0.2625
C6 log (H4K5me/H4K5) (protein MDC1 (Q14676), SILAC run C6): -0.2425
B6 log2 (H4K5me/H4K5) (protein MIF (P14174), run B6): -0.000255
C6 log (H4K5me/H4K5) (protein MIF (P14174), run C6): -0.01982
B6 log2 (H4K5me/H4K5) (protein MINA (Q8IUF8), SILAC run B6): -0.2702
C6 log (H4K5me/H4K5) (protein MINA (Q8IUF8), SILAC run C6): -0.1372
B6 log2 (H4K5me/H4K5) (protein MKI67 (P46013), run B6): 0.02037
C6 log (H4K5me/H4K5) (protein MKI67 (P46013), run C6): 0.05713
B6 log2 (H4K5me/H4K5) (protein MLLT1 (Q03111), run B6): 0.003242
C6 log (H4K5me/H4K5) (protein MLLT1 (Q03111), run C6): 0.1369
B6 log2 (H4K5me/H4K5) (protein MRPL39 (C9JG87), run B6): 0.01098
C6 log (H4K5me/H4K5) (protein MRPL39 (C9JG87), run C6): 0.3616
B6 log2 (H4K5me/H4K5) (protein MSH6 (P52701), run B6): 0.09571
C6 log (H4K5me/H4K5) (protein MSH6 (P52701), run C6): 0.1425
B6 log2 (H4K5me/H4K5) (protein MST4 (Q8NBY1), run B6): -0.02054
C6 log (H4K5me/H4K5) (protein MST4 (Q8NBY1), run C6): -0.08653
B6 log2 (H4K5me/H4K5) (protein MTA3 (E7EQY4), SILAC run B6): -0.2142
C6 log (H4K5me/H4K5) (protein MTA3 (E7EQY4), SILAC run C6): -0.2184
B6 log2 (H4K5me/H4K5) (protein MYL12A (P19105), run B6): 0.06852
C6 log (H4K5me/H4K5) (protein MYL12A (P19105), run C6): -0.04364
B6 log2 (H4K5me/H4K5) (protein NAA30 (Q147X3), SILAC run B6): -0.3436
C6 log (H4K5me/H4K5) (protein NAA30 (Q147X3), SILAC run C6): -0.2425
B6 log2 (H4K5me/H4K5) (protein NACA (F8W1N5), run B6): 0.00233
C6 log (H4K5me/H4K5) (protein NACA (F8W1N5), run C6): 0.07334
B6 log2 (H4K5me/H4K5) (protein NAP1L1 (F8VY35), SILAC run B6): -0.4826
C6 log (H4K5me/H4K5) (protein NAP1L1 (F8VY35), SILAC run C6): -0.1556
B6 log2 (H4K5me/H4K5) (protein NARS (O43776), run B6): -0.008764
C6 log (H4K5me/H4K5) (protein NARS (O43776), run C6): -0.04829
B6 log2 (H4K5me/H4K5) (protein NASP (P49321), run B6): -0.007075
C6 log (H4K5me/H4K5) (protein NASP (P49321), run C6): 0.1001
B6 log2 (H4K5me/H4K5) (protein NHP2 (D6RC52), SILAC run B6): -0.4318
C6 log (H4K5me/H4K5) (protein NHP2 (D6RC52), SILAC run C6): -0.2745
B6 log2 (H4K5me/H4K5) (protein NKRF (O15226), run B6): 0.03396
C6 log (H4K5me/H4K5) (protein NKRF (O15226), run C6): 0.05617
B6 log2 (H4K5me/H4K5) (protein NONO (Q15233), run B6): 0.1133
C6 log (H4K5me/H4K5) (protein NONO (Q15233), run C6): -0.03087
B6 log2 (H4K5me/H4K5) (protein NOP2 (P46087), run B6): 0.08704
C6 log (H4K5me/H4K5) (protein NOP2 (P46087), run C6): -0.06309
B6 log2 (H4K5me/H4K5) (protein NOP58 (Q9Y2X3), run B6): 0.08928
C6 log (H4K5me/H4K5) (protein NOP58 (Q9Y2X3), run C6): 0.1146
B6 log2 (H4K5me/H4K5) (protein NPEPPS (E9PLK3), SILAC run B6): -0.4695
C6 log (H4K5me/H4K5) (protein NPEPPS (E9PLK3), SILAC run C6): -0.1673
B6 log2 (H4K5me/H4K5) (protein NRF1 (Q16656), SILAC run B6): -0.3128
C6 log (H4K5me/H4K5) (protein NRF1 (Q16656), SILAC run C6): 0.005664
B6 log2 (H4K5me/H4K5) (protein NUCKS1 (Q9H1E3), SILAC run B6): -0.358
C6 log (H4K5me/H4K5) (protein NUCKS1 (Q9H1E3), SILAC run C6): 0.05851
B6 log2 (H4K5me/H4K5) (protein NUP50 (Q9UKX7), SILAC run B6): -0.4605
C6 log (H4K5me/H4K5) (protein NUP50 (Q9UKX7), SILAC run C6): -0.7522
B6 log2 (H4K5me/H4K5) (protein NUP155 (E9PF10), run B6): 0.07566
C6 log (H4K5me/H4K5) (protein NUP155 (E9PF10), run C6): -0.7649
B6 log2 (H4K5me/H4K5) (protein O00148 DDX39A, run B6): 0.27
C6 log (H4K5me/H4K5) (protein O00148 DDX39A, run C6): 0.3231
B6 log2 (H4K5me/H4K5) (protein O14654 IRS4, run B6): 0.1263
C6 log (H4K5me/H4K5) (protein O14654 IRS4, run C6): -0.4253
B6 log2 (H4K5me/H4K5) (protein O43913 ORC5, run B6): 0.3319
C6 log (H4K5me/H4K5) (protein O43913 ORC5, run C6): -0.06246
B6 log2 (H4K5me/H4K5) (protein O75643 SNRNP200, run B6): 0.3604
C6 log (H4K5me/H4K5) (protein O75643 SNRNP200, run C6): 0.09513
B6 log2 (H4K5me/H4K5) (protein P02545 LMNA, run B6): 0.2721
C6 log (H4K5me/H4K5) (protein P02545 LMNA, run C6): 0.02171
B6 log2 (H4K5me/H4K5) (protein P12277 CKB, run B6): 0.5555
C6 log (H4K5me/H4K5) (protein P12277 CKB, run C6): 0.5555
B6 log2 (H4K5me/H4K5) (protein P23526 AHCY, run B6): 0.2772
C6 log (H4K5me/H4K5) (protein P23526 AHCY, run C6): -0.08509
B6 log2 (H4K5me/H4K5) (protein P24468 NR2F2, run B6): 0.1201
C6 log (H4K5me/H4K5) (protein P24468 NR2F2, run C6): 0.3564
B6 log2 (H4K5me/H4K5) (protein P26639 TARS, run B6): 0.298
C6 log (H4K5me/H4K5) (protein P26639 TARS, run C6): 0.01983
B6 log2 (H4K5me/H4K5) (protein P30153 PPP2R1A, run B6): 0.456
C6 log (H4K5me/H4K5) (protein P30153 PPP2R1A, run C6): 0.089

— paper PMC11005723, “Development of Complementary Photo‐arginine/lysine to Promote Discovery of Arg/Lys hPTMs Interactomes” (Advanced Science, 2024)
